# Experimental data reported in the supplement of paper PMC12889115.
# Some of the results follow. Values are raw readings; no control value is given beside them.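 In the initial screen, polymyxin B was used at a concentration that permeabilizes Salmonella's outer membrane but not its inner membrane. Maximum growth was set by DMSO wells with or without polymyxin B. Since plates varied, data were ranked per plate, and compounds giving the lowest OD600 advanced as hits.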
# System: Salmonella enterica serovar Typhimurium SL1344
# Experiment: bacterial growth OD600 after 18 h with compound and polymyxin B; higher = more bacterial growth (less inhibition)
# Conditions: 50 µM, polymyxin B 0.75 µg/mL, Mueller-Hinton broth
row,SMILES,bacterial growth OD600
1,CC(=O)c1ccc(OCC(=O)N2CCCC(c3nc(-c4ccncc4)ncc3-c3ccccc3)C2)cc1 (stereo not drawn),0.796
2,O=C(c1ccc(N2CCC(NCc3cnc4ccccn34)CC2)cc1)N1CCc2ccccc2C1,0.765
3,C=CC[C@@H]1CC=C[C@@H](C)N1C(=O)c1cc(Cn2nc(C)cc2C)[nH]n1,0.765
4,CC(C)CCNc1ccc(C(=O)N2CCC(CN3CCCC3=O)CC2)cn1,0.803
5,COc1ccc(OC)c(CN2CCC(c3nc(-c4ccncc4)ncc3-c3cccc(C)c3)CC2)c1,0.841
6,CCCC1(C2CCN(C(=O)CCc3cccs3)CC2)NC(=O)N(CCc2ccccn2)C1=O (stereo not drawn),0.83
7,COc1ccc2c(C)nc(N3CCCC(C(=O)N4CCC[C@H]4CO)C3)nc2c1 (stereo partly drawn),0.962
8,COc1ccc(C2c3[nH]c4ccccc4c3CCN2Cc2nc(C)c[nH]2)cc1C (stereo not drawn),0.29
